Test results as given in the supplement of paper PMC9233669.
Variants at the background level are over-represented here.

Assays:
biotinyl-Val-oxazolone = test: self-aminoacylation, catalytic enhancement (BVO) (fold over background); higher = more active; k-Seq, kA / k0A0; sequences stand for … in GGGAAUGGAUCCACAUCUACGAAUUC…UUCACUGCAGACUUGACGAAGCUG
Procedure, shortened: (§1)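 Mutagenized RNA pools with a 21-nt variable region (0.43 μM) were reacted with each biotinyl-aminoacyl-oxazolone at 2–1250 μM for 90 minutes at room temperature, in 50 μL HEPES/NaCl/KCl/MgCl2/CaCl2 buffer containing 5% acetonitrile at pH 6.9–7.0. RNA captured on streptavidin was quantified by triplicate qPCR and by Illumina sequencing. The fraction reacted for each sequence was fit to a pseudo-first-order model with bootstrapping, and catalytic enhancement is the median kA divided by the uncatalyzed rate, taken as the low-activity peak of a bimodal Gaussian fit.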

biotinyl-Phe-oxazolone = test: self-aminoacylation, catalytic enhancement (BFO) (fold over background); higher = more active; k-Seq, kA / k0A0; sequences stand for … in GGGAAUGGAUCCACAUCUACGAAUUC…UUCACUGCAGACUUGACGAAGCUG
Procedure, shortened: as §1

biotinyl-Leu-oxazolone = test: self-aminoacylation, catalytic enhancement (BLO) (fold over background); higher = more active; k-Seq, kA / k0A0; sequences stand for … in GGGAAUGGAUCCACAUCUACGAAUUC…UUCACUGCAGACUUGACGAAGCUG
Procedure, shortened: as §1

biotinyl-Ile-oxazolone = test: self-aminoacylation, catalytic enhancement (BIO) (fold over background); higher = more active; k-Seq, kA / k0A0; sequences stand for … in GGGAAUGGAUCCACAUCUACGAAUUC…UUCACUGCAGACUUGACGAAGCUG
Procedure, shortened: as §1

biotinyl-Met-oxazolone = test: self-aminoacylation, catalytic enhancement (BMO) (fold over background); higher = more active; k-Seq, kA / k0A0; sequences stand for … in GGGAAUGGAUCCACAUCUACGAAUUC…UUCACUGCAGACUUGACGAAGCUG
Procedure, shortened: as §1

biotinyl-Trp-oxazolone = test: self-aminoacylation, catalytic enhancement (BWO) (fold over background); higher = more active; k-Seq, kA / k0A0; sequences stand for … in GGGAAUGGAUCCACAUCUACGAAUUC…UUCACUGCAGACUUGACGAAGCUG
Procedure, shortened: as §1

Sequence	self-aminoacylation (biotinyl-Val-oxazolone)	self-aminoacylation (biotinyl-Phe-oxazolone)	self-aminoacylation (biotinyl-Leu-oxazolone)	self-aminoacylation (biotinyl-Ile-oxazolone)	self-aminoacylation (biotinyl-Met-oxazolone)	self-aminoacylation (biotinyl-Trp-oxazolone)
AAGUUAGGUAAUAGUCGCAAG [Fam3.1 aminoacylation ribozyme variant]	1.26	1.47	1.28	1.49	1.38	–
AAUUUUGCUAAUAGUCGCUAG [Fam3.1 aminoacylation ribozyme variant]	1.49	1.98	1.48	1.37	1.59	–
AUCACCCUGGUCAUCGAGCGA [Fam2.1 aminoacylation ribozyme variant]	–	1.06	–	–	–	–
AUUACCCGGGUCAUCGAGUUA [Fam2.1 aminoacylation ribozyme variant]	1.58	1.22	1.3	1.52	1.45	–
AUUACCCUGGGCUUCGAGUGA [Fam2.1 aminoacylation ribozyme variant]	1.65	1.66	1.99	1.33	–	–
AUUACCCUGGUCAUGGAGUGG [Fam2.1 aminoacylation ribozyme variant]	1.27	0.877	1.93	1.29	1.58	–
AUUCACGUAGGUCAUCGGGAG [Fam2.2 aminoacylation ribozyme variant]	–	0.881	1.94	1.49	–	1.91
AUUUACCUAGGUCAUCGGAUG [Fam2.2 aminoacylation ribozyme variant]	0.974	–	0.846	0.906	0.954	0.671
AUUUCCCUGGUCUUCGAGUGA [Fam2.1 aminoacylation ribozyme variant]	4.6	–	7.28	4.33	6.94	9.21
AUUUUCCUAGGUCAUCGGGUG [Fam2.2 aminoacylation ribozyme variant]	4.16	–	9.58	4.64	6.79	6.89
CAGCACUUCAAGCAAUCGGUC [Fam1B.1 aminoacylation ribozyme variant]	1.55	–	2.33	1.67	1.79	22.1
CAGUUUGCUAAUAGUCCCAAG [Fam3.1 aminoacylation ribozyme variant]	0.892	–	1.04	1.21	1.22	0.755
CAGUUUGCUCAUAGUCGCAAG [Fam3.1 aminoacylation ribozyme variant]	1.22	–	1.27	1.26	1.13	1.39
CCAAACUUCAAGCAAUCGGGC [Fam1B.1 aminoacylation ribozyme variant]	–	1.21	1.73	–	–	–
CCACAAUUCAAGCAAUCGGGC [Fam1B.1 aminoacylation ribozyme variant]	1.97	1.27	1.44	–	–	–
CCACACUGCAGGCAAUCGGUC [Fam1B.1 aminoacylation ribozyme variant]	2.17	–	1.57	1.44	1.76	1.38
CCACACUUCAAACAACCGGUC [Fam1B.1 aminoacylation ribozyme variant]	0.807	–	0.847	1.21	0.819	1.6
CCACACUUCAAGAAAUCGGUU [Fam1B.1 aminoacylation ribozyme variant]	1.11	1.82	1.17	1.16	1.13	–
CCACACUUCAAGCAAUCGCCC [Fam1B.1 aminoacylation ribozyme variant]	2.32	–	2	0.996	1.33	1.58
CCACACUUCAAGCAAUCGGCU [Fam1B.1 aminoacylation ribozyme variant]	1.96	1.64	–	1.75	1.56	–
CCACACUUCAAGCAGUCGGGC [Fam1B.1 aminoacylation ribozyme variant]	–	1.88	–	–	–	1.52
CCACACUUCAAGCGAUGGGUC [Fam1B.1 aminoacylation ribozyme variant]	1.34	–	1.41	1.28	0.968	1.65
CCACACUUCAAUUAAUCGGUC [Fam1B.1 aminoacylation ribozyme variant]	1.06	–	1.09	1.01	0.937	15.6
CCACACUUCAGCCAAUCGGUC [Fam1B.1 aminoacylation ribozyme variant]	1.92	1.08	–	1.86	1.25	–
CCACGCUUCAAACAAUCGGUC [Fam1B.1 aminoacylation ribozyme variant]	1.42	–	2.17	1.22	1.41	45.3
CCACUCUUCAAUCAAUCGGUC [Fam1B.1 aminoacylation ribozyme variant]	1.05	–	1.47	1.01	0.97	20.3
CCAGACUUCAAGCAAUCGGGC [Fam1B.1 aminoacylation ribozyme variant]	–	1.53	–	–	1.98	–
CCCCACUACAAGCAAUCGGUC [Fam1B.1 aminoacylation ribozyme variant]	1.58	–	1.19	1.4	0.908	1.85

Sequence	self-aminoacylation (biotinyl-Val-oxazolone)	self-aminoacylation (biotinyl-Phe-oxazolone)	self-aminoacylation (biotinyl-Leu-oxazolone)	self-aminoacylation (biotinyl-Ile-oxazolone)	self-aminoacylation (biotinyl-Met-oxazolone)	self-aminoacylation (biotinyl-Trp-oxazolone)
CCUCACUUCAAGCAAUCGGGC [Fam1B.1 aminoacylation ribozyme variant]	1.59	1.33	–	1.59	1.81	–
CGACACUUCAAGCAAUCGGUG [Fam1B.1 aminoacylation ribozyme variant]	–	1.81	–	–	–	1.71
CGACACUUCAAGCAAUCGGUU [Fam1B.1 aminoacylation ribozyme variant]	1.79	1.81	1.32	1.9	1.11	–
CGACUUCAAUCAAUCGGUCUG [Fam1A.1 aminoacylation ribozyme variant]	1.7	–	2.21	1.46	1.62	24.3
CUAAUUCAAACAAACGGUCUG [Fam1A.1 aminoacylation ribozyme variant]	0.917	–	0.561	0.823	0.616	0.543
CUACACUUUAAGCAAUCGGUC [Fam1B.1 aminoacylation ribozyme variant]	0.74	–	0.585	0.768	0.63	0.565
CUACCCUUCAAGCAAUCGGUC [Fam1B.1 aminoacylation ribozyme variant]	1.03	–	1.02	1.04	0.817	5.52
CUACUACAAACAAUCGGUCUG [Fam1A.1 aminoacylation ribozyme variant]	0.743	–	0.608	0.694	0.634	0.73
CUACUCCAAUCAAUCGGUCUG [Fam1A.1 aminoacylation ribozyme variant]	0.929	–	0.799	0.771	0.81	1.52
CUACUGCAAACAAUCGGUCCG [Fam1A.1 aminoacylation ribozyme variant]	1.11	–	1.29	1.38	1.25	1.51
CUACUGCAAACAAUCGGUGUG [Fam1A.1 aminoacylation ribozyme variant]	0.893	–	1.24	1.11	1.33	1.36
CUACUUCAAACAAUCGGACUC [Fam1A.1 aminoacylation ribozyme variant]	0.7	–	0.624	0.675	0.563	2.57
CUACUUCAAACAAUCGGCCCG [Fam1A.1 aminoacylation ribozyme variant]	1.25	–	1.23	1.34	1.46	1.9
CUACUUCAAACAUUCGGGCUG [Fam1A.1 aminoacylation ribozyme variant]	–	1.65	1.81	–	–	1.65
CUACUUCAGACAAUGGGUCUG [Fam1A.1 aminoacylation ribozyme variant]	0.791	–	0.916	0.948	0.798	0.664
CUAGUUCAAACAUUCGGUCUG [Fam1A.1 aminoacylation ribozyme variant]	1.56	–	1.31	1.38	1.46	0.958
CUCCAUCAAACAAUCGGUCUG [Fam1A.1 aminoacylation ribozyme variant]	0.86	–	0.94	1.08	1.19	1.64
CUGCUUCAAACAAUCCGUCUG [Fam1A.1 aminoacylation ribozyme variant]	0.891	–	0.819	0.844	0.756	1.89
CUGCUUCAAACAAUCGUUCUG [Fam1A.1 aminoacylation ribozyme variant]	0.516	–	0.486	0.549	0.424	1.29
CUUCACCUAGGUCAUCGGGAG [Fam2.2 aminoacylation ribozyme variant]	1.47	0.981	1.52	1.66	1.57	–
GAGUUUGCUAAUAGCCGCAAG [Fam3.1 aminoacylation ribozyme variant]	1.35	–	1.78	1.45	1.35	1.89
GAGUUUGUUAAUAGUCGCAAG [Fam3.1 aminoacylation ribozyme variant]	1.5	–	1.67	1.93	1.66	1.57
GUACUGCAAACAAUCGGUCUG [Fam1A.1 aminoacylation ribozyme variant]	1.1	–	1.24	1.3	0.971	1.23
UAUUUUGCUAAUAGUCGCAAG [Fam3.1 aminoacylation ribozyme variant]	1.52	–	1.31	1.75	1.65	1.47
UCACACUUCAAGCAAUCGCUC [Fam1B.1 aminoacylation ribozyme variant]	1.32	–	1.3	1.43	1.46	1.45
UUACUCCAAACAAUCGGUCUG [Fam1A.1 aminoacylation ribozyme variant]	0.977	–	0.992	0.908	0.825	2.69
UUUCACCUAGGUUAUCGGGUG [Fam2.2 aminoacylation ribozyme variant]	2.93	–	3.72	2.92	3.71	4.62
